The list does not hold the whole screen: it is rich in T/C values a quarter to a half above the control, in often repeated tests (any T/C) and in doses without a T/C. Further doses and runs are listed elsewhere. T/C gives the treated animals as a percentage of the vehicle group. Some entries give survivors of the animals treated and no T/C: the source holds a T/C of zero for them, seemingly a mark for toxic or unscored doses. Some doses without a T/C left all or most animals alive at the check, yet need not have been tolerated: the source hardly ever lists a survival T/C far under the control, and the zero likely stands for such cases as well. Counts of survivors are from the toxicity check (mostly the fifth day) where no day follows; animals may have died later. Schedule codes are those of the source, read here as Q, the interval in days (D) or hours (H), X, the number of doses. Some entries hold several experiments; the values are given in rising order. For survival time, the PubChem record calls one and a half times the control and up active, and a quarter to a half above the control has no call in these data; cut-offs in other NCI protocols can differ. Some T/C values carry the count of animals alive at the toxicity check (mostly the fifth day); where none is given, no animal had died by that day.
Test system: L1210 leukemia ip in BDF1 mice, survival T/C
Experiment: NCI In Vivo Anticancer Drug Screen. Data for tumor model L1210 Leukemia (intraperitoneal) in B6D2F1 (BDF1) mice
Settings: T/C endpoint: mean survival time, higher T/C = longer survival
[1] = dose: 100.0 mg/kg/injection, schedule: Q01DX001 (ip), vehicle: other
[2] = dose: 200.0 mg/kg/injection, schedule: Q01DX001 (ip), vehicle: other
[3] = dose: 400.0 mg/kg/injection, schedule: Q01DX001 (ip), vehicle: other
[4] = dose: 100.0 mg/kg/injection, schedule: Q04DX002 (ip), vehicle: Klucel (hydroxypropylcellulose) (HPC)
[5] = dose: 100.0 mg/kg/injection, schedule: Q01DX009 (ip), vehicle: Klucel (hydroxypropylcellulose) (HPC)

In the case of `CCOCCN1C=C/C(=C/C=C/c2cc[n+](CCOCC)c3ccccc23)c2ccccc21`, the survivor count (dose: 1.8 mg/kg/injection, schedule: Q01DX009 (ip), vehicle: saline) is reported as 1 of 6, the survivor count (dose: 2.5 mg/kg/injection, schedule: Q01DX001 (ip), vehicle: saline) is reported as 3 of 6 and the survivor count (dose: 2.8 mg/kg/injection, schedule: Q04DX003 (ip), vehicle: saline) is reported as 0 of 6. For the same molecule, the survivor count (dose: 4.2 mg/kg/injection, schedule: Q04DX003 (ip), vehicle: saline) was 4 of 6 and the survivor count (dose: 5.0 mg/kg/injection, schedule: Q01DX001 (ip), vehicle: saline) was 0 of 6.
In the case of `CN(C)C1C(CO)C(CO)C1(C)C` (stereo not drawn), the T/C (dose: 400.0 mg/kg/injection, schedule: Q01DX001 (ip), vehicle: saline with Tween-80) is reported as 142 % of control [2 of 3 alive].
`CCOc1cc([N+](=O)[O-])c(OCC)cc1C#N` was tested, and the survivor count (dose: 40.0 mg/kg/injection, schedule: Q01DX001 (ip), vehicle: other) was 2 of 4, the survivor count (dose: 80.0 mg/kg/injection, schedule: Q01DX001 (ip), vehicle: other) was 0 of 4 and the survivor count [1] was 0 of 4. The survivor count [2] was 0 of 4 and the survivor count [3] was 0 of 4.
For `FC(F)(F)C(Cl)Br` (stereo not drawn), the survivor count (dose: 200.0 mg/kg/injection, schedule: Q01DX001 (ip), vehicle: saline) was 3 of 6, the survivor count (dose: 400.0 mg/kg/injection, schedule: Q01DX001 (ip), vehicle: saline) was 3 of 6 and the survivor count (dose: 4000.0 mg/kg/injection, schedule: Q05DX002 (ip), vehicle: water) was 1 of 10.
For `CN(C)C(=O)N/N=C/c1ccc(Cl)cc1`, the survivor count (dose: 400.0 mg/kg/injection, schedule: Q01DX009 (ip), vehicle: saline with Tween-80) was 3 of 6.
`CCCCCC(CN(C)C)C(O)CCc1ccc(Cl)c(Cl)c1` (stereo not drawn) was tested, and the survivor count [4] was 3 of 3.
`COC1OC2COC(c3ccccc3)OC2C(=O)C1OS(=O)(=O)c1ccc(C)cc1` (stereo not drawn) was tested, and the survivor count (dose: 100.0 mg/kg/injection, schedule: Q04DX003 (ip), vehicle: saline with Tween-80) was 6 of 6.
In the case of `Clc1nc(I)c(Cl)c(C(Cl)(Cl)Cl)n1`, the survivor count (dose: 100.0 mg/kg/injection, schedule: Q01DX001 (ip), vehicle: Klucel (hydroxypropylcellulose) (HPC)) is reported as 2 of 3, the survivor count (dose: 200.0 mg/kg/injection, schedule: Q01DX001 (ip), vehicle: Klucel (hydroxypropylcellulose) (HPC)) is reported as 0 of 3 and the survivor count (dose: 400.0 mg/kg/injection, schedule: Q01DX001 (ip), vehicle: Klucel (hydroxypropylcellulose) (HPC)) is reported as 0 of 3.
`C[n+]1cc(N)cc2ccccc21` was tested, and the survivor count [1] was 0 of 4, the survivor count [2] was 0 of 4 and the survivor count [3] was 0 of 4.
For `CCCCCCCCCCCCCCCCCC(=O)[O][Pb]([CH3])([CH3])[CH3]`, the survivor count (dose: 50.0 mg/kg/injection, schedule: Q04DX002 (ip), vehicle: Klucel (hydroxypropylcellulose) (HPC)) was 0 of 3, the survivor count [4] was 0 of 3 and 1 of 3 and the survivor count (dose: 200.0 mg/kg/injection, schedule: Q04DX002 (ip), vehicle: Klucel (hydroxypropylcellulose) (HPC)) was 0 of 3. The survivor count (dose: 400.0 mg/kg/injection, schedule: Q04DX002 (ip), vehicle: Klucel (hydroxypropylcellulose) (HPC)) was 0 of 3.
With `Cc1cc(C)c(OS(=O)(=O)c2ccc([N+](=O)[O-])cc2)c(C)c1` the survivor count (dose: 100.0 mg/kg/injection, schedule: Q01DX009 (ip), vehicle: saline with Tween-80) was 6 of 6.
For `COc1cc2c(cc1OC)C1CC(=O)CCN1CC2` (stereo not drawn), the T/C (dose: 50.0 mg/kg/injection, schedule: Q01DX009 (ip), vehicle: Klucel (hydroxypropylcellulose) (HPC)) was 130 % of control and the survivor count [5] was 3 of 3.
For `CCCCCCCCCCCCCCCCCCNCCC#N`, the survivor count [5] was 6 of 6, the survivor count (dose: 200.0 mg/kg/injection, schedule: Q01DX009 (ip), vehicle: Klucel (hydroxypropylcellulose) (HPC)) was 4 of 6 and the survivor count (dose: 400.0 mg/kg/injection, schedule: Q01DX009 (ip), vehicle: Klucel (hydroxypropylcellulose) (HPC)) was 4 of 6.
